Test results from article PMC8786996.
These are yes or no findings as the source states them, for the method shown. In cells and extracts the contact can be indirect. Some results given as binding are weak or reduced against the parent protein; the word gives no strength. Sequences can lack the tags named with a protein.

Sequences of proteins named here, by UniProt entry; tags and fusion partners are left off.
UniProt Q84ZL0: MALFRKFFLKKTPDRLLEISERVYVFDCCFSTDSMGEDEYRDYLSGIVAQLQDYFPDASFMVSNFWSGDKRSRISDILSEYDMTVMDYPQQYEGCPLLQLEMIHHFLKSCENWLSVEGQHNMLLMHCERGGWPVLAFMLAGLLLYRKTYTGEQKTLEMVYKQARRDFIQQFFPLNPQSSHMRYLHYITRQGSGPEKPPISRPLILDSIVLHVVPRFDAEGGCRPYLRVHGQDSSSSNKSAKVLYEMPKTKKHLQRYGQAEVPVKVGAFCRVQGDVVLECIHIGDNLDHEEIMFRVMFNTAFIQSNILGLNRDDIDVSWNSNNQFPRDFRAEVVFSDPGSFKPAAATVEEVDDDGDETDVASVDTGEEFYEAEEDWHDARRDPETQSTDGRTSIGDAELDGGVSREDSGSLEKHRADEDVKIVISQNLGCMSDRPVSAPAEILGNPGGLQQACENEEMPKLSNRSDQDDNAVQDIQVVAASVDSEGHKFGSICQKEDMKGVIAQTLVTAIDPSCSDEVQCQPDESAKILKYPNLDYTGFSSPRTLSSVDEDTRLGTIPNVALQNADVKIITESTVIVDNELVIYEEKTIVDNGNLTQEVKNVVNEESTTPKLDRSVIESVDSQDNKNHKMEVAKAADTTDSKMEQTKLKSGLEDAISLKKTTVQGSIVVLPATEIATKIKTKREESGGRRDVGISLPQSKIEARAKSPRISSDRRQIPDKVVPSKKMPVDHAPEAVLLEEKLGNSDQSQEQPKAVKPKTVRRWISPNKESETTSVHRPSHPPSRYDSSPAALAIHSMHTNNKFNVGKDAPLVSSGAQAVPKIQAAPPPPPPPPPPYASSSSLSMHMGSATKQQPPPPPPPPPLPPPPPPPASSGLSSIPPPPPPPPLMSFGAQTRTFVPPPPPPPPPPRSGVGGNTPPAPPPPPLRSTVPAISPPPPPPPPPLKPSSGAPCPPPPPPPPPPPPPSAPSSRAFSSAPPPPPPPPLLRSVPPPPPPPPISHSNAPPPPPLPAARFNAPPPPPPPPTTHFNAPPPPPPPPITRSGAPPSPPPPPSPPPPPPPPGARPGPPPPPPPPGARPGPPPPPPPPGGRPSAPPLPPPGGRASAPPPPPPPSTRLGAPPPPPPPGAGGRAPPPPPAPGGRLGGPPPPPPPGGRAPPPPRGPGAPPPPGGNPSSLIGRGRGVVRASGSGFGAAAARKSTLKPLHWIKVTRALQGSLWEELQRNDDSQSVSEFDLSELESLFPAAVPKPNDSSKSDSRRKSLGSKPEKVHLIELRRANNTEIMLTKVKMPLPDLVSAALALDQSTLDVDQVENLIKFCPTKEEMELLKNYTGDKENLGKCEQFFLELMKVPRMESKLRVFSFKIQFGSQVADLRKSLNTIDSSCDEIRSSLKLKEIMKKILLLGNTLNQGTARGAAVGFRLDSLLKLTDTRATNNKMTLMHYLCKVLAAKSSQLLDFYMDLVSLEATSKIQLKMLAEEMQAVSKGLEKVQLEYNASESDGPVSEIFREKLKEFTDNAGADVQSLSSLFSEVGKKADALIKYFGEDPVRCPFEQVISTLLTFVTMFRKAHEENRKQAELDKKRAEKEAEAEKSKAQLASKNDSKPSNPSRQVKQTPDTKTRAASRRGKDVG

Legend:
[1] = target: full-length RIP5 fused to a half of YFP, in tobacco leaves (rice) (UniProt Q10L91); experiment: split reporter; BiFC with nYFP and cYFP fusions co-transformed into Nicotiana benthamiana leaves by Agrobacterium; confocal microscopy after 24-36 h in the dark
[2] = target: full-length RMD fused to cYFP (RMD-cYFP), in tobacco leaves (rice) (UniProt Q84ZL0); experiment: as above

binding [1]: binds
binding [2]: binds
B1: full-length RIP5 fused to a half of YFP, in tobacco leaves (protein, UniProt Q10L91 1-301)
chain: MASVTYIDDSGSEVIDPPKTEVLDVTELAGDPVPHSPKPNVVVSSSVRELLECPVCLSAMYPPIHQCSNGHTLCSGCKPRVHNRCPTCRHELGNIRCLALEKVAASLELPCKYQNFGCVGIYPYYCKLKHESQCQYRPYSCPYAGSECTVAGDIPYLVNHLKDDHKVDMHNGCTFNHRYVKSNPHEVENATWMLTVFSCFGQYFCLHFEAFQLGMAPVYIAFLRFMGDDLEAKNYSYSLEVGGTGRKMIWQGVPRSIRDSHRKVRDSYDGLIIQRNMALFFSGGERKELKLRVTGRIWKEQ
